Source: PMC7093153 (eLife, 2020)
These are yes or no findings as the source states them, for the method shown. Some results given as binding are weak or reduced against the parent protein; the word gives no strength.

T1: Sfr1 (full-length, wild type) (S. pombe) (UniProt Q9USV1)
T1 sequence: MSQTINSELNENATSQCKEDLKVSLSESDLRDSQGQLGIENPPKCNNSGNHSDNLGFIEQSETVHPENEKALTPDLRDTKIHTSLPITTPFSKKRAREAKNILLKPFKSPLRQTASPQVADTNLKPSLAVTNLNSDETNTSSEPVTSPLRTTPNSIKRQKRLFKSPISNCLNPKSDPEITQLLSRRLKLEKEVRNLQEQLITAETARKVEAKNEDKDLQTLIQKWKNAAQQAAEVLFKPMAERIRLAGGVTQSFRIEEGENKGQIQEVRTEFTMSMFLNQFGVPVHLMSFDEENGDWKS

T2: Sfr1N (N-terminal half of Sfr1, residues 1-176) (S. pombe) (UniProt Q9USV1)
T2 sequence (chain, uniformly 15N-labeled): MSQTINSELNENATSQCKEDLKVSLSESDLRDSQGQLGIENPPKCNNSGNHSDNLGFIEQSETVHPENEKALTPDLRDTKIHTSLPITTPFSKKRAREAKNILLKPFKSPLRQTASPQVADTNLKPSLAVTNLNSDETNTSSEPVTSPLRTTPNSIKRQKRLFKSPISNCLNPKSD

B1: Swi5 (protein, UniProt Q9UUB7 1-85)
chain: MEKSQLESRVHLLEQQKEQLESSLQDALAKLKNRDAKQTVQKHIDLLHTYNEIRDIALGMIGKVAEHEKCTSVELFDRFGVNGSE
B2: Rad51 (S. pombe), purified (natural protein, UniProt P36601 1-365, looked up)
chain: MADTEVEMQVSAADTNNNENGQAQSNYEYDVNVQDEEDEAAAGPMPLQMLEGNGITASDIKKIHEAGYYTVESIAYTPKRQLLLIKGISEAKADKLLGEASKLVPMGFTTATEYHIRRSELITITTGSKQLDTLLQGGVETGSITELFGEFRTGKSQICHTLAVTCQLPIDMGGGEGKCLYIDTEGTFRPVRLLAVADRYGLNGEEVLDNVAYARAYNADHQLELLQQAANMMSESRFSLLVVDSCTALYRTDFSGRGELSARQMHLARFMRTLQRLADEFGIAVVITNQVVAQVDGISFNPDPKKPIGGNILAHSSTTRLSLRKGRGEQRICKIYDSPCLPESEAIFAINSDGVGDPKEIIAPV

Columns and labels:
[1] = biological target: T1, Sfr1 (full-length, wild type) (S. pombe); assay: co-purification
[2] = biological target: T2, Sfr1N (N-terminal half of Sfr1, residues 1-176) (S. pombe); assay: NMR titration

Row | Binder | binding [1] | binding [2]
1 | B1 | binds | 
2 | B2 |  | binds weakly
